Data from PMC3296292.
No constants are given. Whether binding was seen depends on the method and setting. For part of these data: Binding can be weak; no strength is given. Sequences can lack the tags named with a protein. For part of these data: In cells and extracts the contact can be indirect. Blank lines part the entries; values can stand above or below the binder they belong to.

What was measured:
[1] = target: BD-Nesprin-1-165-1145-1431 (mouse); test: two-hybrid; Gal4 system, Nesprin-1-165 polypeptides as BD fusions (pGBKT7), Nesprin-3-ΔC as AD fusion (pGADT7), yeast strain Y190; growth on selection plates and filter lift β-galactosidase assay
[2] = target: BD-Nesprin-1-165-573-858 (mouse); test: as above
[3] = target: BD-Nesprin-1-165-859-1144 (mouse); test: as above
[4] = target: BD-Nesprin-1-165-ABD (mouse); test: as above
[5] = target: GST-Nesprin-1-165-1-286 (mouse); test: pull-down; GST or GST-Nesprin-1-165 polypeptides coupled to Sepharose beads, incubated overnight at 4°C with lysates of transfected COS7 cells (50 mM Tris-HCl pH 7.5, 150 mM NaCl, 1% NP-40, 0.5% sodium desoxycholate, 1 mM DTT); western blot with GFP antibody mAb K3-184; only the target purified
[6] = target: GST-Nesprin-1-165-1145-1431 (mouse); test: as above
[7] = target: GST-Nesprin-1-165-573-858 (mouse); test: as above
[8] = target: GST-Nesprin-1-165-859-1144 (mouse); test: as above

binding [1]: binds | binding [2]: binds | binding [3]: no binding | binding [4]: binds
B1: AD-Nesprin-3-ΔC (domain or fragment, UniProt Q6ZMZ3 1-429)
chain: MTQQPQDDFDRSVEDAQAWMKAVQDQLQVNDNTQGPRAALEARLWETEKICQLEPEGRVRVDLVLRMAEALLACCPGDQKPGILARLKDIKAQWEETVTYMTHCHSRIEWVWLHWSEYLLARDEFYRWFQKMMVTLEPHIELQLGLKEKQWQLSHAQVLLHNVDNQAVLLDRLLEEAASLFNRIGDPSVDEDAQKRMKAEYDAVKAKAQKRVDLLEQVAREHEEYQAGVDEFQLWLKAVVEKVNGCLGRNCKLPITQRLSTLQDIAKDFPRGEESLETLEEQSAGVIRNTSPLGAEKITGELEEMRKVLEKLRALWEEEEERLRGLLRSRGAWEQQIKQLEAELSEFRMVLQRLAQEGLQPAAKAGTEDELVAHWRRYSATRAALASEEPRVDRLQAQLKELIVFPHNLKPLSDSVIATIQEYQSLKVK

binding [5]: binds | binding [6]: binds | binding [7]: binds | binding [8]: no binding
B2: Nesprin-1-165-GFP (aa 1-1431) (protein, UniProt Q6ZWR6-5 1-1431)
chain: MATSRASSRSHRDITNVMQRLQDEQEIVQKRTFTKWINSHLAKRKPPMVVDDLFEDMKDGIKLLALLEVLSGQKLPCEQGHRVKRIHAVANIGTALKFLEGRKSMYRGSPIKLVNINATDIADGRPSIVLGLMWTIILYFQIEELTSNLPQLQSLSSSASSVDSMVSTETASPPSKRKVAAKIQGNAKKTLLKWVQHTAGKQMGIEVKDFGKSWRTGLAFHSVIHAIQPELVDLEKVKTRSNRENLEDAFTIAETQLGIPRLLDPEDVDVDKPDEKSIMTYVAQFLTQYPDIHGAGCDGQEDDRDDRLILKETKVWIEQFERDFTRAQMTESSLQDKYQAFKHFRVQYEMKRKQVEHIIQPLQRDGKLTLDQALVKQCWERVSSRLFDWHIQLDKSLPAPLGTIGAWLYRAEVALREEITIQQVHEETANTIQRKLEQHKDLLQNTDAHKRAFHEIYQTRSVNGIPMPPDQLEDMAERFHFVSSTSELHLMKMEFLELKYRLLSLLVLAESKLKSWIIKYGRRESVELLLQSYISFIENSKFFEQYEVTYQILKQTADIYVKAEGSVEEAENVMKFMSEATAQWRNLSVEVRSVRSMLEEVISNWDRYGDTVASLQAWLEDAEKMLSQSEHAKKDFFRNLPHWIQQHTAMNDAGNFLIETCDEIVSRDLKQQLLLLNGRWRELFMEVKQYARADEMDRMKKEYIDVTTTLFGFATEAHRKLSEPLEVSFINVKLLIQDLEDLEKRVPVMDAQYKMIAKKAHLFAKESPQEEANEMLTTMSKLKEQLSKVKECCSPLLYEAQQLTVPLEELETQITSFYDSLGKINEILSVLEQEAQSSTLFKQKHQELLASQENCKKSLTLIEKGSQSVQKLVTSSQARKPWDHTKLQKQIADVHHAFQSMIKKTGDWKKHVEANSRLMKKFEESRAELEKVLRVAQEGLEEKGDPEELLRRHTEFFSQLDQRVLNAFLKACDELTDILPEQEQQGLQEAVRKLHKQWKDLQGEAPYHLLHLKIAVEKDRFSAAVEECRAELEQETKLAPQEGSEKIIKEHRVFFSDKGPHHLCEKRLQLIEELCGKLPVQDPVRDTCGACHTALKELKASIDNTYTMLVDDPDKWKDYTSRFSEFSSWVSAKKACLKKIKDEPIDTGNHDEVKHMVDEIRNDITKKGESLSWLKSRLKYLIDISSENEAQKRGDELAELSSSFKALVALLSEVEKLLSNFGECVQYKEIVKSSLEGLISGPQESKEEAEMILDSKNLLEAQQLLLHHQQKTKMISAKKRDLQEQMEQAQQGGQAGPGQEELRKLESTLTGLEQSRERQERRIQVSLRKWERFETNKETVVRYLFQTGSSHERFLSFSSLESLSSELEQTKEFSKRTESIATQAENLVKEAAELPLGPRNKRVLQRQAKSIKEQVTTLEDTLEEEYVLHHF

binding [5]: binds | binding [6]: binds | binding [7]: binds | binding [8]: no binding
B3: GFP-Nesprin-3-ΔC (aa 1-437) (domain or fragment, UniProt Q6ZMZ3 1-437)
chain: MTQQPQDDFDRSVEDAQAWMKAVQDQLQVNDNTQGPRAALEARLWETEKICQLEPEGRVRVDLVLRMAEALLACCPGDQKPGILARLKDIKAQWEETVTYMTHCHSRIEWVWLHWSEYLLARDEFYRWFQKMMVTLEPHIELQLGLKEKQWQLSHAQVLLHNVDNQAVLLDRLLEEAASLFNRIGDPSVDEDAQKRMKAEYDAVKAKAQKRVDLLEQVAREHEEYQAGVDEFQLWLKAVVEKVNGCLGRNCKLPITQRLSTLQDIAKDFPRGEESLETLEEQSAGVIRNTSPLGAEKITGELEEMRKVLEKLRALWEEEEERLRGLLRSRGAWEQQIKQLEAELSEFRMVLQRLAQEGLQPAAKAGTEDELVAHWRRYSATRAALASEEPRVDRLQAQLKELIVFPHNLKPLSDSVIATIQEYQSLKVKSARLRNAA
